Results as given in publication PMC5239452.

Sequences of proteins named here, by UniProt entry; tags and fusion partners are left off. A change or cut given only in a name is not applied to a line headed by its entry.
UniProt P06396: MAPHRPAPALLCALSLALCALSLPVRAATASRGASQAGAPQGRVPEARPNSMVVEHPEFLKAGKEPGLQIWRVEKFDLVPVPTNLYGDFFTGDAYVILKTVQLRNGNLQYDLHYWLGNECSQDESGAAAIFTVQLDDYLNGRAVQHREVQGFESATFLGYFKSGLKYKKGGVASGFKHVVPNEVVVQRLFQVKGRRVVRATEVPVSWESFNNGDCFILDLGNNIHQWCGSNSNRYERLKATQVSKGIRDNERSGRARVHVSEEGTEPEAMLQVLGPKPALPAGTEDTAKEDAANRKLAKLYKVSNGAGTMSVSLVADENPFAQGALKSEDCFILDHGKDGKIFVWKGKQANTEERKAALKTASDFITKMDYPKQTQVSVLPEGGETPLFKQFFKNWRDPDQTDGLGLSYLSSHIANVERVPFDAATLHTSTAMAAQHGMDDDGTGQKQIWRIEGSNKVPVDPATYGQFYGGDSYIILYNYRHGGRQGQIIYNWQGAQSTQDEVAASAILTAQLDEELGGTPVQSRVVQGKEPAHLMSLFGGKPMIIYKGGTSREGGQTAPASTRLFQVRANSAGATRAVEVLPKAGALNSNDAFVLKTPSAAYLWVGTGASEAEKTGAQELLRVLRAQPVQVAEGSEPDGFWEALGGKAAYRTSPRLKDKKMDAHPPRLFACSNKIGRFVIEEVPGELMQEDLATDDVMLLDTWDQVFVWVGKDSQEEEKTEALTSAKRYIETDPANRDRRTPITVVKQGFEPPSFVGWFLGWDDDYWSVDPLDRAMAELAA
UniProt P03129: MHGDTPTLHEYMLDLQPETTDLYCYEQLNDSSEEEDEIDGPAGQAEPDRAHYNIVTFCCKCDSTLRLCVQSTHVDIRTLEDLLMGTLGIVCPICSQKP

Columns and labels:
[1] = biological target: gelsolin (human (endogenous in SiHa, CaSki and C-33A)) (UniProt P06396); assay: FRET or BRET; quantitative FRET by flow cytometry in fixed and permeabilised C-33A cells transfected with E7 wt or deletion mutants, analysis restricted to FL1-positive (transfected) cells; E7 labelled with anti-E7 MAb + PE anti-mouse (donor), endogenous GSN with anti-gelsolin PAb + Cy5 anti-rabbit (acceptor); FRET efficiency by Riemann's algorithm
[2] = biological target: gelsolin (human (endogenous in SiHa, CaSki and C-33A)) (UniProt P06396); assay: FRET or BRET; quantitative FRET by flow cytometry, cell by cell, in fixed and permeabilised SiHa and CaSki cells (C-33A as E7-null reference); endogenous E7 labelled with anti-E7 MAb + PE anti-mouse (donor, FL2), GSN with anti-gelsolin PAb + Cy5 anti-rabbit (acceptor, FL4), FRET in FL3; FRET efficiency by Riemann's algorithm

“wild type E7 oncoprotein (E7 wt) (from UniProt P03129 1-98)” was tested, and the binding [1] was “binds”.
In the case of “HPV16 E7 oncoprotein (from UniProt P03129 1-98)”, the binding [2] is reported as “binds”.

These are yes or no findings as the source states them, for the method shown. In cells and extracts the contact can be indirect. A result given as binding can be weak or reduced; the word gives no strength.
